This test deals with Ro52 (human (endogenous in HeLa)) (UniProt P19474). Description: co-IP; HeLa cells, unstimulated or stimulated with polyI:C, LPS, imiquimod or CpG-B for 4 and 18 hrs; lysed in RIPA buffer; immunoprecipitated with anti-Ro52 bound to protein-G sepharose, immunoblotted with anti-IRF7. For orientation: Immunoblotting shows a protein as a band on a membrane.

By UniProt entry, the sequences of proteins in these tests, tags left out.
UniProt P19474: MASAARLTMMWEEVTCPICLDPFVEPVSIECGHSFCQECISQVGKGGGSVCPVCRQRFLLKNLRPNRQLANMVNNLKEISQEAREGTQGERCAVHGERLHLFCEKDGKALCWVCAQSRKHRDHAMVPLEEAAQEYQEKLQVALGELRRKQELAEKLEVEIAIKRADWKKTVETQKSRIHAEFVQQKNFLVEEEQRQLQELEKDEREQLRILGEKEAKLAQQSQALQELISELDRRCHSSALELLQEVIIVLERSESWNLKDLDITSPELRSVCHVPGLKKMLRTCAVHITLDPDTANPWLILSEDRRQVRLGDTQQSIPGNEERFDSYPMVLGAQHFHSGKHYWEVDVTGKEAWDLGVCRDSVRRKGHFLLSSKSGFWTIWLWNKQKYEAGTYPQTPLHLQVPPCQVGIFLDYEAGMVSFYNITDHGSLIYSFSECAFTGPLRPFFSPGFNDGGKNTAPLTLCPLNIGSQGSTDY

No constants are given. Whether binding was seen depends on the method and setting. In cells and extracts the contact can be indirect. Some results given as binding are weak or reduced against the parent protein; the word gives no strength.

B1: IRF7 (protein, UniProt Q92985 1-503)
chain: MALAPERAAPRVLFGEWLLGEISSGCYEGLQWLDEARTCFRVPWKHFARKDLSEADARIFKAWAVARGRWPPSSRGGGPPPEAETAERAGWKTNFRCALRSTRRFVMLRDNSGDPADPHKVYALSRELCWREGPGTDQTEAEAPAAVPPPQGGPPGPFLAHTHAGLQAPGPLPAPAGDKGDLLLQAVQQSCLADHLLTASWGADPVPTKAPGEGQEGLPLTGACAGGPGLPAGELYGWAVETTPSPGPQPAALTTGEAAAPESPHQAEPYLSPSPSACTAVQEPSPGALDVTIMYKGRTVLQKVVGHPSCTFLYGPPDPAVRATDPQQVAFPSPAELPDQKQLRYTEELLRHVAPGLHLELRGPQLWARRMGKCKVYWEVGGPPGSASPSTPACLLPRNCDTPIFDFRVFFQELVEFRARQRRGSPRYTIYLGFGQDLSAGRPKEKSLVLVKLEPWLCRVHLEGTQREGVSSLDSSSLSLCLSSANSLYDDIECFLMELEQPA
As for B1, the binding entry is “binds”.

Source of the values: PMC2909902.
